According to the supplement of paper PMC9015667:
Structures can show the parent of a compound that is named as a salt. The list shows a part of the results. Repeats are few or missing, and single values can be far off.

These molecules were tested on M238R (matched melanoma line resistant to BRAF inhibitors) (assay: reduction in cell viability relative to untreated/vehicle; higher = more growth inhibition). Conditions: 200 nM; 72 h.

`Cc1[nH]c2ccccc2c1CCNCc1ccc(/C=C/C(=O)NO)cc1` [Panobinostat (LBH589)] was tested. Which “reduction in cell viability” value did it give?
The value was 86.2%.

For `Cc1c(-c2cccc3c(CCCOc4cccc5ccccc45)c(C(=O)O)n(Cc4cccnc4)c23)c(COc2ccc(N3CCN([S+](=O)([O-])N(C)C)CC3)cc2)nn1C`, which “reduction in cell viability” value is on record?
The value was < 0%.

`O=C(NCc1ccccc1)c1csc(Nc2ccncn2)n1` [Thiazovivin] was tested. Which “reduction in cell viability” value did it give?
The value was < 0%.

For `CNc1nc(Nc2ccc(C(=O)N3CCOCC3)cc2OC)ncc1Cl`, which “reduction in cell viability” value is on record?
The value was < 0%.

With `O=C(CCCCCCC(=O)Nc1ccc([C@H]2O[C@@H](CSc3nc(-c4ccccc4)c(-c4ccccc4)o3)C[C@@H](c3ccc(CO)cc3)O2)cc1)NO` [Tubacin] as the molecule, how does the “reduction in cell viability” value read?
Its value is 12.4%.

Which “reduction in cell viability” value does the source give for `CC1(C)CCC[C@]2(C)[C@H]3CC(=O)O[C@]3(C)CC[C@@H]12` [Sclareolide] here?
The value was < 0%.

How did the “reduction in cell viability” value turn out when `N#Cc1c(O)c2c(-c3ccc(-c4ccccc4O)cc3)csc2[nH]c1=O` was run?
The value was < 0%.

How did the “reduction in cell viability” value turn out when `O=c1[nH]c(=O)n([C@H]2C[C@H](O)[C@@H](CO)O2)cc1F` [Floxuridine] was run?
The value was < 0%.

`CN(C)CCN(Cc1ccc(Cl)cc1)c1ccccn1` [Chloropyramine hydrochloride] was tested. Which “reduction in cell viability” value did it give?
The value was < 0%.

With `N#Cc1c(C2CCNCC2)cc(-c2c(O)cccc2OCC2CC2)nc1N` [IKK-2 Inhibitor VIII] as the molecule, how does the “reduction in cell viability” value read?
The value was < 0%.

For `CN1CCN(c2ncc(-c3cc(Cl)cc(Cl)c3Cl)c(N)n2)CC1` [Sipatrigine], which “reduction in cell viability” value is on record?
Its value is < 0%.

For `CC(=O)N1CCN(c2ccc(OCc3nn(C)c(C)c3-c3cccc4c(CCCOc5cc(C)c(Cl)c(C)c5)c(C(=O)O)n(Cc5cccnc5)c34)cc2)CC1`, which “reduction in cell viability” value is on record?
Its value is < 0%.

With `CCC1=C[C@@H]2CN(C1)Cc1c([nH]c3ccccc13)[C@@](C(=O)OC)(c1cc3c(cc1OC)N(C)[C@H]1[C@@](O)(C(=O)OC)[C@H](OC(C)=O)[C@]4(CC)C=CCN5CC[C@]31[C@@H]54)C2` [Vinorelbine tartrate] as the molecule, how does the “reduction in cell viability” value read?
Its value is 62.5%.

`CC1(C)C(N(O)C(=O)Nc2ccc(Cl)cc2)N(c2ccc(Cl)cc2)C(=O)N1CC(=O)NN=CC=Cc1ccc([N+](=O)[O-])o1` (stereo unspecified) [Eeyarestatin I] was tested. Which “reduction in cell viability” value did it give?
The value was < 0%.

Which “reduction in cell viability” value does the source give for `COc1cc2ncnc(Nc3ccc(F)c(Cl)c3)c2cc1NC(=O)/C=C/CN1CCCCC1` [Dacomitinib] here?
The value was < 0%.

With `CNC(=O)CN1CCC(Oc2cc3c(Nc4cccc(Cl)c4F)ncnc3cc2OC)CC1` [Sapitinib] as the molecule, how does the “reduction in cell viability” value read?
Its value is < 0%.

For `COc1c(OCCCN2CCOCC2)ccc2c1N=C(NC(=O)c1cnc(N)nc1)N1CCN=C21`, which “reduction in cell viability” value is on record?
The value was < 0%.

With `C=CC(=O)N1CCc2ccc(-n3c(=O)ccc4cnc5ccc(-c6cnn(C)c6)cc5c43)cc21` as the molecule, how does the “reduction in cell viability” value read?
Its value is < 0%.

`CC[C@H](/C=C/[C@@H](C)[C@H]1CC[C@H]2[C@@H]3CC=C4C[C@@H](O)CC[C@]4(C)[C@H]3CC[C@]12C)C(C)C` [Stigmasterol] was tested. Which “reduction in cell viability” value did it give?
Its value is < 0%.

`C=C1C[C@@]2(O)O[C@@]3(C[C@H]2C(C)C)[C@@H](C)CC[C@@H]13` [Curcumol] was tested. Which “reduction in cell viability” value did it give?
Its value is < 0%.

For `Cc1ccc(-c2ncn(-c3ccc(Nc4nccc(-c5cccc(N6CCOCC6)c5)n4)cc3)n2)cn1`, which “reduction in cell viability” value is on record?
Its value is 0.73%.

`CN1CCC(=C2c3ccccc3CC(=O)c3sccc32)CC1` [Ketotifen] was tested. Which “reduction in cell viability” value did it give?
The value was < 0%.

With `CCCCOc1ccc(C(=O)Nc2ccc(F)cc2F)cc1` as the molecule, how does the “reduction in cell viability” value read?
The value was < 0%.

How did the “reduction in cell viability” value turn out when `CCCCCCCCCCC[C@@H](C[C@@H]1OC(=O)[C@H]1CCCCCC)OC(=O)[C@H](CC(C)C)NC=O` [Orlistat] was run?
Its value is < 0%.

With `CC1=C[C@@H]2[C@H]([C@@H](O)C[C@@]3(C)[C@H]2C[C@@H](C)[C@]3(O)C(=O)CO)[C@@]2(C)Cc3cnn(-c4ccccc4)c3C=C12` [Deacetyl cortivazol] as the molecule, how does the “reduction in cell viability” value read?
Its value is < 0%.

With `COC(=O)Nc1nc2cc(C(=O)c3ccc(F)cc3)ccc2[nH]1` [Flubendazole] as the molecule, how does the “reduction in cell viability” value read?
The value was 22.9%.
